Data taken from PMC10411459.
These are yes or no findings as the source states them, for the method shown. For part of these data: In cells and extracts the contact can be indirect. Some binding calls cover weakened binding; strength is not graded here.

Chains of the proteins cited; added tags and fusions are not shown. Lines headed by an entry give the natural chain unless they say otherwise; changes in a name come on top.
UniProt P08670: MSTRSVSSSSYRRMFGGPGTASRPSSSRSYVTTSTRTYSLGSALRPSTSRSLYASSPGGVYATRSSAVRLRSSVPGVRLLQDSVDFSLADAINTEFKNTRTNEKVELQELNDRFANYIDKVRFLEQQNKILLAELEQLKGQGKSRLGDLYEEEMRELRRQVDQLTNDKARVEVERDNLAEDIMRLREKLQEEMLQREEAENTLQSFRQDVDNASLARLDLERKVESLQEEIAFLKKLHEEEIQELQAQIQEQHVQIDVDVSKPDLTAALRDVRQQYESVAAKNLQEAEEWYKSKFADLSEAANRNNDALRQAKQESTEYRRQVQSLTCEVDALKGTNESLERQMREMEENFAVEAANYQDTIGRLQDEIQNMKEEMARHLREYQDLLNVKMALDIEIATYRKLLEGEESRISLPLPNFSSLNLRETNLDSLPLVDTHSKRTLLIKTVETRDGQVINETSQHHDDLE
UniProt P62136: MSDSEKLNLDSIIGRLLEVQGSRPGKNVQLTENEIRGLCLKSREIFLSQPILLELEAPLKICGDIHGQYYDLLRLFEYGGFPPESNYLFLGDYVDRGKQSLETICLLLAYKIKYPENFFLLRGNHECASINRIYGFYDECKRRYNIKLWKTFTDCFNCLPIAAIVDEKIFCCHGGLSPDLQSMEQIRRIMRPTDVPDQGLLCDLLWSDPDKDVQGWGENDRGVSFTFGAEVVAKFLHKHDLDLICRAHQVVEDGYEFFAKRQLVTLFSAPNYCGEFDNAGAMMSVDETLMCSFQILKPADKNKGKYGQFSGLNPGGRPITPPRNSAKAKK

T1: Golgi-protein 73 (human (endogenous in MHCC-97H)) (UniProt Q8NBJ4)
T1 sequence: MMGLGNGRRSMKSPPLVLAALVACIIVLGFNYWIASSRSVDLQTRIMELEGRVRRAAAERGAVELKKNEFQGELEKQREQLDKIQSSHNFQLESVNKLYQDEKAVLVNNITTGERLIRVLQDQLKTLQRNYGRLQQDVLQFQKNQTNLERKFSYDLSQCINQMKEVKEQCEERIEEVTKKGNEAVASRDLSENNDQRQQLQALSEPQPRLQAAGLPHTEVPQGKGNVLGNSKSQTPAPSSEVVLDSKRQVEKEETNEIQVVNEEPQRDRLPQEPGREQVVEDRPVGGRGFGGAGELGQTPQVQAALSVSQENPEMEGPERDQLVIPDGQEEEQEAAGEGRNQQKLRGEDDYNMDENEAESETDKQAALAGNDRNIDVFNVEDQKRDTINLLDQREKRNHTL


How the values were obtained:
[1] = biological target: T1, Golgi-protein 73 (human (endogenous in MHCC-97H)); test: co-IP; lysates of HCC cells (MHCC-97H, Hep3B), immunoblotting; GP73 knocked down or overexpressed (Fig. 4C), vimentin S56 mutants transfected (Fig. 4D), Clomipramine for 24 h (Fig. 5G)
[2] = biological target: vimentin (human (endogenous in MHCC-97H)) (UniProt P08670); test: SEC; whole cell lysates of MHCC-97H and Hep3B over Superdex 200 in cold PBS, vimentin monomers, tetramers and polymers detected by immunoblotting, GP73 knocked down or overexpressed
[3] = biological target: Serine/Threonine-protein phosphatase PP1-alpha (human (endogenous in MHCC-97H)) (UniProt P62136); test: co-IP; lysates of HCC cells (MHCC-97H, Hep3B), immunoblotting; GP73 knocked down or overexpressed (Fig. 4C), vimentin S56 mutants transfected (Fig. 4D), Clomipramine for 24 h (Fig. 5G)
[4] = biological target: vimentin (human (endogenous in MHCC-97H)) (UniProt P08670); test: native gel or EMSA; Native-PAGE and immunoblotting of vimentin in Hep3B and MHCC-97H cells

| binding [1] | binding [2] | binding [3] | binding [4] | Molecule |
| --- | --- | --- | --- | --- |
| binds | – | – | – | vimentin S56A mutant (from UniProt P08670 1-466) |
| binds | binds | binds | binds | vimentin (from UniProt P08670 1-466) |
| – | – | binds | – | Golgi-protein 73 (protein, UniProt Q8NBJ4 1-401) MMGLGNGRRSMKSPPLVLAALVACIIVLGFNYWIASSRSVDLQTRIMELEGRVRRAAAERGAVELKKNEFQGELEKQREQLDKIQSSHNFQLESVNKLYQDEKAVLVNNITTGERLIRVLQDQLKTLQRNYGRLQQDVLQFQKNQTNLERKFSYDLSQCINQMKEVKEQCEERIEEVTKKGNEAVASRDLSENNDQRQQLQALSEPQPRLQAAGLPHTEVPQGKGNVLGNSKSQTPAPSSEVVLDSKRQVEKEETNEIQVVNEEPQRDRLPQEPGREQVVEDRPVGGRGFGGAGELGQTPQVQAALSVSQENPEMEGPERDQLVIPDGQEEEQEAAGEGRNQQKLRGEDDYNMDENEAESETDKQAALAGNDRNIDVFNVEDQKRDTINLLDQREKRNHTL |
